Test: Metabolomic profiling of blood plasma, 62 ALS subjects vs 62 control subjects (Example 3; Tables 7, 8)
Assay type: in vivo, human
Conditions: blood plasma; ALS mean level compared to control mean level; positive = increase in ALS
With `CCCCCCCCCC(=O)O` [decanoic acid] the “% change in ALS” value was 10%. With `NCCc1c[nH]cn1` [Histamine] the “% change in ALS” value was 2%. In the case of `O=c1[nH]c(=O)c2[nH]c(=O)[nH]c2[nH]1` [uric acid], the “% change in ALS” value is reported as −5%. In the case of `CCCCCCCCCCCCCCCC(=O)O` [n-hexadecanoic acid], the “% change in ALS” value is reported as 5%. In the case of `CC[C@H](C)[C@H](N)C(=O)O` [Isoleucine], the “% change in ALS” value is reported as 2%. With `Cc1c(C)c2c(c(C)c1O)CC[C@@](C)(CCC[C@H](C)CCC[C@H](C)CCCC(C)C)O2` [alpha-tocopherol] the “% change in ALS” value was 48%. With `O=C(O)c1cc(O)c2ccccc2n1` [4-hydroxy-2-quinolinecarboxylic acid] the “% change in ALS” value was 5%. With `CC(C)CC(=O)C(=O)O` [Metabolite 4-methyl-2-oxopentanoate, 4-methyl-2-oxopentanoate] the “% change in ALS” value was −12%. For `N[C@@H](Cc1ccc(O)c(O)c1)C(=O)O` [DOPA], the “% change in ALS” value was 1%. For `O=C(O)[C@H](O)COP(=O)(O)O` [Metabolite 3-phospho-d-glycerate, 3-phospho-d-glycerate], the “% change in ALS” value was −1%. For `OC[C@H]1OC[C@H](O)[C@@H](O)[C@@H]1O`, the “% change in ALS” value was 10%. In the case of `NCC(O)CC[C@H](N)C(=O)O` (stereo partly drawn) [Metabolite 5-hydroxylysine, 5-hydroxylysine], the “% change in ALS” value is reported as −24%. In the case of `O=C1O[C@H]([C@@H](O)CO)C(O)=C1O` [ascorbic acid], the “% change in ALS” value is reported as −12%. In the case of `Cn1cnc2ncnc-2c1N` [Metabolite 1-methyladenine, 1-methyladenine], the “% change in ALS” value is reported as −16%.

Same assay, conditions: blood plasma; ALS mean level vs control mean level; 62 ALS vs 62 control subjects; analytical platform GC-MS
With `CCCCCCCCCC(=O)O` [decanoic acid] the “% change in ALS” value was 10%. With `O=c1[nH]c(=O)c2[nH]c(=O)[nH]c2[nH]1` [uric acid] the “% change in ALS” value was −5%. In the case of `CCCCCCCCCCCCCCCC(=O)O` [n-hexadecanoic acid], the “% change in ALS” value is reported as 5%. With `Cc1c(C)c2c(c(C)c1O)CC[C@@](C)(CCC[C@H](C)CCC[C@H](C)CCCC(C)C)O2` [alpha-tocopherol] the “% change in ALS” value was 48%. In the case of `CC(C)CC(=O)C(=O)O` [Metabolite 4-methyl-2-oxopentanoate, 4-methyl-2-oxopentanoate], the “% change in ALS” value is reported as −12%. With `OC[C@H]1OC[C@H](O)[C@@H](O)[C@@H]1O` the “% change in ALS” value was 10%. With `Cn1cnc2ncnc-2c1N` [Metabolite 1-methyladenine, 1-methyladenine] the “% change in ALS” value was −16%.

Same assay, conditions: blood plasma; ALS mean level vs control mean level; 62 ALS vs 62 control subjects; analytical platform LC-MS
In the case of `NCCc1c[nH]cn1` [Histamine], the “% change in ALS” value is reported as 2%. With `O=C(O)c1cc(O)c2ccccc2n1` [4-hydroxy-2-quinolinecarboxylic acid] the “% change in ALS” value was 5%. With `NCC(O)CC[C@H](N)C(=O)O` (stereo partly drawn) [Metabolite 5-hydroxylysine, 5-hydroxylysine] the “% change in ALS” value was −24%. For `O=C1O[C@H]([C@@H](O)CO)C(O)=C1O` [ascorbic acid], the “% change in ALS” value was −12%.

Test: Disease progression: plasma of ALS subjects, matched-pairs T-test month 1 vs month 12 (Table 18)
Assay type: in vivo, human
Conditions: mean plasma level, month 1 vs month 12 after screening; positive = increase as disease progressed; 37 ALS patients
With `O=C1CC[C@@H](C(=O)O)N1` [5-oxoproline] the “% Change with disease progression” value was −7%. With `CCCCC/C=C\C/C=C\CCCCCCCC(=O)O` [Linoleic acid] the “% Change with disease progression” value was 6%. In the case of `CCCCCCCCCC(=O)O` [decanoic acid], the “% Change with disease progression” value is reported as 3%. For `O=C(O)C(O)Cc1ccc(O)cc1` (stereo not drawn) [(p-Hydroxyphenyl)lactic acid], the “% Change with disease progression” value was −15%. For `NCCc1c[nH]cn1` [Histamine], the “% Change with disease progression” value was 24%. For `Nc1ccccc1C(=O)C[C@H](N)C(=O)O` [L-kynurenine], the “% Change with disease progression” value was −6%. With `O=c1[nH]c(=O)c2[nH]c(=O)[nH]c2[nH]1` [uric acid] the “% Change with disease progression” value was −2%. With `C=C(OP(=O)(O)O)C(=O)O` [phosphoenolpyruvate] the “% Change with disease progression” value was 1%. For `O=S(=O)(O)Oc1c[nH]c2ccccc12`, the “% Change with disease progression” value was −11%. For `O=C(O)C1CCCCN1` (racemic) [DL-pipecolic acid], the “% Change with disease progression” value was −9%. For `OC[C@H]1O[C@@H](O[C@H]2[C@H](O)[C@H](O)C(O)O[C@@H]2CO)[C@H](O)[C@@H](O)[C@H]1O` (stereo partly drawn) [Phosphate], the “% Change with disease progression” value was 2%. For `CCCCCCCCCCCCCCCC(=O)O` [n-hexadecanoic acid], the “% Change with disease progression” value was 9%. For `CNC(=N)N` [1-methyl-guanidine], the “% Change with disease progression” value was −5%. With `CC(C)(CO)[C@@H](O)C(=O)NCCC(=O)O` [pantothenic acid] the “% Change with disease progression” value was 33%. In the case of `OC[C@H]1OC(O)[C@H](O)[C@@H](O)[C@@H]1O` (stereo partly drawn) [D-glucose], the “% Change with disease progression” value is reported as −1%. In the case of `C[C@H](CCC(=O)NCC(=O)O)[C@H]1CC[C@H]2[C@@H]3[C@H](O)C[C@@H]4C[C@H](O)CC[C@]4(C)[C@H]3C[C@H](O)[C@]12C` [glycocholic acid], the “% Change with disease progression” value is reported as −16%. With `CC[C@H](C)[C@H](N)C(=O)O` [Isoleucine] the “% Change with disease progression” value was 4%. For `OC[C@H]1O[C@@H](O[C@H]2[C@H](O)[C@H](O)C(O)O[C@@H]2CO)[C@H](O)[C@@H](O)[C@H]1O` (stereo partly drawn) [4-O-beta-galactopyranosyl-D-mannopyranose], the “% Change with disease progression” value was 3%. For `CC(C)C[C@H](NC(=O)CC[C@H](N)C(=O)O)C(=O)O` [gamma-glu-leu], the “% Change with disease progression” value was −16%. For `O=P(O)(O)OC1[C@H](O)[C@H](O)C(O)[C@H](O)[C@H]1O` (stereo partly drawn) [inositol-1-phosphate], the “% Change with disease progression” value was −25%. With `NCCCC[C@H](N)C(=O)O` [Lysine] the “% Change with disease progression” value was 12%. In the case of `O=C(O)C(O)Cc1c[nH]c2ccccc12` (racemic) [DL-indole-3-lactic acid], the “% Change with disease progression” value is reported as −9%. With `Cc1c(C)c2c(c(C)c1O)CC[C@@](C)(CCC[C@H](C)CCC[C@H](C)CCCC(C)C)O2` [alpha-tocopherol] the “% Change with disease progression” value was −21%.

Test: Metabolomic profiling (GC-MS/LC-MS) of CSF samples, ALS subjects vs control subjects (Example 1; Tables 3, 4)
Assay type: in vivo, human
Conditions: CSF; ALS mean as compared to control mean; T-tests of ALS vs. Controls
In the case of `O=C(O)c1cc(O)c2ccccc2n1` [4-hydroxy-2-quinolinecarboxylic acid], the “% change in ALS” value is reported as 12%.

Same assay, conditions: CSF; ALS mean as compared to the control mean
For `O=C(O)c1cc(O)c2ccccc2n1` [4-hydroxy-2-quinolinecarboxylic acid], the “% change in ALS” value was 12%.

Same assay, conditions: CSF; mean in ALS samples as compared to control samples
For `O=C(O)c1cc(O)c2ccccc2n1` [4-hydroxy-2-quinolinecarboxylic acid], the “Increase (+) or Decrease (−) in ALS” value was “+”.

Same assay, conditions: CSF; mean in ALS samples vs control samples; T-tests
With `O=C(O)c1cc(O)c2ccccc2n1` [4-hydroxy-2-quinolinecarboxylic acid] the “Increase (+) or Decrease (−) in ALS” value was “+”.

Test: Disease progression: plasma of 40 ALS subjects, random coefficient regression analysis over time (Table 16)
Assay type: in vivo, human
Conditions: common slope of plasma metabolite level over month (0, 1, 6, 12), positive = level increased over time, negative = decreased
`O=C1CC[C@@H](C(=O)O)N1` [5-oxoproline] gave an SLOPE of −0.003. For `CCCCC/C=C\C/C=C\CCCCCCCC(=O)O` [Linoleic acid], the SLOPE was 0.000. `CCCCCCCCCC(=O)O` [decanoic acid] showed an SLOPE of −0.001. `O=C(O)C(O)Cc1ccc(O)cc1` (stereo not drawn) [(p-Hydroxyphenyl)lactic acid] showed an SLOPE of −0.012. Work on `NCCc1c[nH]cn1` [Histamine] yielded an SLOPE of 0.017. For `Nc1ccccc1C(=O)C[C@H](N)C(=O)O` [L-kynurenine], the SLOPE was −0.004. With `O=c1[nH]c(=O)c2[nH]c(=O)[nH]c2[nH]1` [uric acid] the SLOPE was 0.000. For `C=C(OP(=O)(O)O)C(=O)O` [phosphoenolpyruvate], the SLOPE was 0.007. For `O=S(=O)(O)Oc1c[nH]c2ccccc12`, the SLOPE was −0.009. In the case of `O=C(O)C1CCCCN1` (racemic) [DL-pipecolic acid], the SLOPE is reported as −0.015. `OC[C@H]1O[C@@H](O[C@H]2[C@H](O)[C@H](O)C(O)O[C@@H]2CO)[C@H](O)[C@@H](O)[C@H]1O` (stereo partly drawn) [Phosphate] gave an SLOPE of 0.002. With `CCCCCCCCCCCCCCCC(=O)O` [n-hexadecanoic acid] the SLOPE was 0.004. With `CNC(=N)N` [1-methyl-guanidine] the SLOPE was −0.006. Molecule `CC(C)(CO)[C@@H](O)C(=O)NCCC(=O)O` [pantothenic acid] has an SLOPE of 0.057. Molecule `OC[C@H]1OC(O)[C@H](O)[C@@H](O)[C@@H]1O` (stereo partly drawn) [D-glucose] has an SLOPE of 0.001. For `C[C@H](CCC(=O)NCC(=O)O)[C@H]1CC[C@H]2[C@@H]3[C@H](O)C[C@@H]4C[C@H](O)CC[C@]4(C)[C@H]3C[C@H](O)[C@]12C` [glycocholic acid], the SLOPE was 0.015. In the case of `CC[C@H](C)[C@H](N)C(=O)O` [Isoleucine], the SLOPE is reported as 0.003. `OC[C@H]1O[C@@H](O[C@H]2[C@H](O)[C@H](O)C(O)O[C@@H]2CO)[C@H](O)[C@@H](O)[C@H]1O` (stereo partly drawn) [4-O-beta-galactopyranosyl-D-mannopyranose] showed an SLOPE of 0.004. In the case of `CC(C)C[C@H](NC(=O)CC[C@H](N)C(=O)O)C(=O)O` [gamma-glu-leu], the SLOPE is reported as −0.015. `O=P(O)(O)OC1[C@H](O)[C@H](O)C(O)[C@H](O)[C@H]1O` (stereo partly drawn) [inositol-1-phosphate] showed an SLOPE of −0.026. Molecule `NCCCC[C@H](N)C(=O)O` [Lysine] has an SLOPE of 0.011. Work on `O=C(O)C(O)Cc1c[nH]c2ccccc12` (racemic) [DL-indole-3-lactic acid] yielded an SLOPE of −0.002. `Cc1c(C)c2c(c(C)c1O)CC[C@@](C)(CCC[C@H](C)CCC[C@H](C)CCCC(C)C)O2` [alpha-tocopherol] showed an SLOPE of −0.046.

From US8841077B2, “Biomarkers for amyotrophic lateral sclerosis and methods using the same” (Massachusetts General Hospital, priority 2006, dated 2014)
